# This is one part of the list.
# B1: B936 (Bifidobacterium sp) (protein)
# chain: MKNWKKAIALVASAAALVSVAACGPSNAGGSSDSGKKTVGFVAVGPEGGFRTANEKDIQKAFEDAGFDLTYSPTQNNDQQKQIQAFNKFVNDEVDAIILSSTEDSGWDDSLKKAAEAEIPVFTVDRNVDVKDAEAKKAIVAHIGPSNVWCGEQAAEFVNKNFPDGANGFILEGPAGLSVVKDRGTGWGNKVASNVKVLESQSANWSTDEAKTVTAGLLDKYKSDNPQFIFAQNDEMGLGAAQAVDAAGLKGKVKIITIDGTKNALQALVDGDLSYVIEYNPIFGKETAQAVKDYLDGKTVEKDIEIESKTFDAASAKEALDNNTRAY
# Legend:
# Assay in all cases: glycan array binding signal (z-score within array); higher = stronger binding
# Details in all cases: glycan notation: IUPAC condensed, linker removed
# [1] = molecular target: Gal(b1-4)GlcNAc(b1-3)Gal(b1-4)GlcNAc(b1-3)Gal(b1-4)GlcNAc(b1-2)Man(a1-3)[Gal(b1-4)GlcNAc(b1-3)Gal(b1-4)GlcNAc(b1-3)Gal(b1-4)GlcNAc(b1-2)Man(a1-6)]Man(b1-4)GlcNAc(b1-4)GlcNAc
# In short: (§1)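 The Consortium for Functional Glycomics database supplied 3228 glycan arrays, of which those lacking an available protein sequence were dropped. The binding signal, a within-array Z-score, was averaged across arrays of the same protein sequence and across linkers. Negative scores can be read as non-binding.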
# [2] = molecular target: Gal(b1-4)GlcNAc(b1-3)Gal(b1-4)GlcNAc(b1-3)Gal(b1-4)GlcNAc(b1-2)Man(a1-3)[Gal(b1-4)GlcNAc(b1-3)Gal(b1-4)GlcNAc(b1-3)Gal(b1-4)GlcNAc(b1-2)Man(a1-6)]Man(b1-4)GlcNAc(b1-4)[Fuc(a1-6)]GlcNAc
# In short: as §1
# [3] = molecular target: Gal(b1-4)GlcNAc(b1-3)Gal(b1-4)GlcNAc(b1-3)Gal(b1-4)GlcNAc(b1-2)[Gal(b1-4)GlcNAc(b1-3)Gal(b1-4)GlcNAc(b1-3)Gal(b1-4)GlcNAc(b1-6)]Man(a1-6)[Gal(b1-4)GlcNAc(b1-3)Gal(b1-4)GlcNAc(b1-3)Gal(b1-4)GlcNAc(b1-2)Man(a1-3)]Man(b1-4)GlcNAc(b1-4)[Fuc(a1-6)]GlcNAc
# In short: as §1
# [4] = molecular target: Gal(b1-4)GlcNAc(b1-3)Gal(b1-4)GlcNAc(b1-3)Gal(b1-4)GlcNAc(b1-3)Gal(b1-4)GlcNAc(b1-2)Man(a1-3)[Gal(b1-4)GlcNAc(b1-3)Gal(b1-4)GlcNAc(b1-3)Gal(b1-4)GlcNAc(b1-3)Gal(b1-4)GlcNAc(b1-2)Man(a1-6)]Man(b1-4)GlcNAc(b1-4)GlcNAc
# In short: as §1
# [5] = molecular target: Gal(b1-4)GlcNAc(b1-3)Gal(b1-4)GlcNAc(b1-3)Gal(b1-4)GlcNAc(b1-3)Gal(b1-4)GlcNAc(b1-2)Man(a1-3)[Gal(b1-4)GlcNAc(b1-3)Gal(b1-4)GlcNAc(b1-3)Gal(b1-4)GlcNAc(b1-3)Gal(b1-4)GlcNAc(b1-2)Man(a1-6)]Man(b1-4)GlcNAc(b1-4)[Fuc(a1-6)]GlcNAc
# In short: as §1
# [6] = molecular target: Gal(b1-4)GlcNAc(b1-3)Gal(b1-4)GlcNAc(b1-3)Gal(b1-4)GlcNAc(b1-3)Gal(b1-4)GlcNAc(b1-2)[Gal(b1-4)GlcNAc(b1-3)Gal(b1-4)GlcNAc(b1-3)Gal(b1-4)GlcNAc(b1-3)Gal(b1-4)GlcNAc(b1-6)]Man(a1-6)[Gal(b1-4)GlcNAc(b1-3)Gal(b1-4)GlcNAc(b1-3)Gal(b1-4)GlcNAc(b1-3)Gal(b1-4)GlcNAc(b1-2)Man(a1-3)]Man(b1-4)GlcNAc(b1-4)[Fuc(a1-6)]GlcNAc
# In short: as §1
# [7] = molecular target: Gal(b1-4)GlcNAc(b1-3)Gal(b1-4)GlcNAc(b1-3)Gal(b1-4)GlcNAc(b1-3)Gal(b1-4)GlcNAc(b1-3)Gal(b1-4)GlcNAc(b1-2)Man(a1-3)[Gal(b1-4)GlcNAc(b1-3)Gal(b1-4)GlcNAc(b1-3)Gal(b1-4)GlcNAc(b1-3)Gal(b1-4)GlcNAc(b1-3)Gal(b1-4)GlcNAc(b1-2)Man(a1-6)]Man(b1-4)GlcNAc(b1-4)GlcNAc
# In short: as §1
# [8] = molecular target: Gal(b1-4)GlcNAc(b1-3)Gal(b1-4)GlcNAc(b1-3)Gal(b1-4)GlcNAc(b1-3)Gal(b1-4)GlcNAc(b1-3)Gal(b1-4)GlcNAc(b1-2)Man(a1-3)[Gal(b1-4)GlcNAc(b1-3)Gal(b1-4)GlcNAc(b1-3)Gal(b1-4)GlcNAc(b1-3)Gal(b1-4)GlcNAc(b1-3)Gal(b1-4)GlcNAc(b1-2)Man(a1-6)]Man(b1-4)GlcNAc(b1-4)[Fuc(a1-6)]GlcNAc
# In short: as §1
# [9] = molecular target: Gal(b1-4)GlcNAc(b1-3)Gal(b1-4)GlcNAc(b1-3)Gal(b1-4)GlcNAc(b1-3)Gal(b1-4)GlcNAc(b1-3)Gal(b1-4)GlcNAc(b1-2)[Gal(b1-4)GlcNAc(b1-3)Gal(b1-4)GlcNAc(b1-3)Gal(b1-4)GlcNAc(b1-3)Gal(b1-4)GlcNAc(b1-3)Gal(b1-4)GlcNAc(b1-6)]Man(a1-6)[Gal(b1-4)GlcNAc(b1-3)Gal(b1-4)GlcNAc(b1-3)Gal(b1-4)GlcNAc(b1-3)Gal(b1-4)GlcNAc(b1-3)Gal(b1-4)GlcNAc(b1-2)Man(a1-3)]Man(b1-4)GlcNAc(b1-4)[Fuc(a1-6)]GlcNAc
# In short: as §1
# [10] = molecular target: Gal(b1-4)GlcNAc(b1-3)Gal(b1-4)GlcNAc(b1-3)Gal(b1-4)GlcNAc(b1-3)Gal(b1-4)GlcNAc(b1-3)Gal(b1-4)GlcNAc(b1-3)Gal(b1-4)GlcNAc(b1-2)Man(a1-3)[Gal(b1-4)GlcNAc(b1-3)Gal(b1-4)GlcNAc(b1-3)Gal(b1-4)GlcNAc(b1-3)Gal(b1-4)GlcNAc(b1-3)Gal(b1-4)GlcNAc(b1-3)Gal(b1-4)GlcNAc(b1-2)Man(a1-6)]Man(b1-4)GlcNAc(b1-4)GlcNAc
# In short: as §1
# [11] = molecular target: Gal(b1-4)GlcNAc(b1-3)Gal(b1-4)GlcNAc(b1-3)GalNAc
# In short: as §1
# [12] = molecular target: Gal(b1-4)GlcNAc(b1-3)Gal(b1-4)GlcNAc(b1-3)[Gal(b1-4)GlcNAc(b1-3)Gal(b1-4)GlcNAc(b1-6)]GalNAc
# In short: as §1
# [13] = molecular target: Gal(b1-4)GlcNAc(b1-3)Gal(b1-4)GlcNAc(b1-6)[Gal(b1-3)]GalNAc
# In short: as §1
# [14] = molecular target: Gal(b1-4)GlcNAc(b1-3)Gal(b1-4)[Fuc(a1-3)]GlcNAc(b1-3)Gal(b1-4)[Fuc(a1-3)]GlcNAc
# In short: as §1
# [15] = molecular target: Gal(b1-4)GlcNAc(b1-3)GalNAc
# In short: as §1
# [16] = molecular target: Gal(b1-4)GlcNAc(b1-3)[Fuc(a1-3)GlcNAc(b1-6)]Gal(b1-4)Glc
# In short: as §1
# [17] = molecular target: Gal(b1-4)GlcNAc(b1-3)[Gal(b1-4)GlcNAc(b1-6)]Gal(b1-4)GlcNAc
# In short: as §1
# [18] = molecular target: Gal(b1-4)GlcNAc(b1-3)[GlcNAc(b1-6)]Gal(b1-4)GlcNAc
# In short: as §1
# [19] = molecular target: Gal(b1-4)GlcNAc(b1-6)Gal(b1-4)GlcNAc
# In short: as §1
binder,measurement,setting,value
B1,glycan array binding signal (z-score),[1],0.363
same,glycan array binding signal (z-score),[2],0.191
same,glycan array binding signal (z-score),[3],0.555
same,glycan array binding signal (z-score),[4],-0.333
same,glycan array binding signal (z-score),[5],0.964
same,glycan array binding signal (z-score),[6],0.485
same,glycan array binding signal (z-score),[7],-0.371
same,glycan array binding signal (z-score),[8],0.242
same,glycan array binding signal (z-score),[9],0.853
same,glycan array binding signal (z-score),[10],1.23
same,glycan array binding signal (z-score),[11],-0.441
same,glycan array binding signal (z-score),[12],1.46
same,glycan array binding signal (z-score),[13],0.28
same,glycan array binding signal (z-score),[14],-0.113
same,glycan array binding signal (z-score),[15],-0.511
same,glycan array binding signal (z-score),[16],-0.662
same,glycan array binding signal (z-score),[17],-0.009
same,glycan array binding signal (z-score),[18],-0.05
same,glycan array binding signal (z-score),[19],-0.507

# Pulled one by one from above, 2 records:
binder,measurement,setting,value
B1,glycan array binding signal (z-score),[18],-0.05
same,glycan array binding signal (z-score),[16],-0.662
